Measured values taken from patent US20250276009A1, “Therapeutic use of hydrogen sulfide in frostbite injury” ([(The)] London Health Sciences Centre Research Inc., priority 2024, published 2025).

Tested on: KI-67
Assay: Immunofluorescence staining of frostbite wound tissue, day 15: proliferation marker
Type: in vivo, C57BL/6 mice (Mus musculus)

For O=S([O-])([O-])=S.[Na+].[Na+] [STS, sodium thiosulfate], the KI-67 expression (150 μM STS in Aveeno vs Aveeno without STS) was “markedly upregulated”, the KI-67 expression (150 μM STS in Dove vs Dove without STS) was “did not change KI-67 expression significantly” and the KI-67 expression (150 μM STS in Neutrogena vs Neutrogena without STS) was “did not change KI-67 expression significantly”. The KI-67 expression (150 μM STS in Nivea vs Nivea without STS) was “markedly upregulated”.
